Hit rate of the full screen: of about 390,000 compounds, about 610 (0.16%) were called active. Inconclusive means that the source gave no clear call. Such entries were picked first, then a sample of the others. Calls come from the whole dose curve; as a rule, active = well fitted inhibition curve with a large enough effect; inconclusive = small, poorly fitted or top-dose-only effect, or effect the other way, or another doubt; inactive = no such curve, though single readings can be large or run the other way. A potency beside an inconclusive call is a rough fit, not a confirmed value.
Experiment: Nrf2 qHTS screen for inhibitors: counterscreen for cytotoxicity
Settings: A549 ARE-Fluc cells, CellTiter-Fluor viability, 18-24 h; series mostly up to 46 µM
Summary of the method: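 A549 ARE_Fluc cells in 5% FBS OPTI-MEM were exposed to compounds in concentration-response for 18-24 h at 37 deg C. Viability was read by CellTiter-Fluor fluorescence (Ex 405/Em 525) after 30 min, before the luciferase read.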
In the case of `O=C1c2ccccc2NC(c2cccc(F)c2)N1Cc1ccccc1` (stereo not given), the Potency is reported as “inactive”. In the case of `COc1cc(-c2ccc3c(=O)c4ccccc4sc3c2)cc(OC)c1OC`, the Potency is reported as “inactive”. For `COc1ccccc1OCCOc1ccc(C(=O)c2ccccc2)cc1`, the Potency was inconclusive: 18.4 µM [activator, single point]. In the case of `COCCN1C(=O)c2oc3ccccc3c(=O)c2C1c1ccc(C(=O)OC)cc1` (stereo not given), the Potency is reported as “inactive”. For `CCCCSC(=S)NC1CCS(=O)(=O)C1` (stereo not given), the Potency was inconclusive: 18.4 µM [falling, single point]. In the case of `Cc1ccc2nc(N3CCN(C(=O)CCCC(=O)O)CC3)nc(-c3ccccc3)c2c1`, the Potency is reported as inconclusive: 18.4 µM [activator, partial curve, poor fit]. With `Cc1[nH]c2ccccc2c1/C=N/NC(=S)NC(C)C` the Potency was inconclusive: 32.6 µM [falling, partial curve, poor fit]. For `Cc1cc(C)c2nc(NNC(=O)c3ccc(S(=O)(=O)N4CCCC(C)C4)cc3)sc2c1` (stereo not given), the Potency was inconclusive: 20.6 µM [falling, partial curve, poor fit]. In the case of `Cc1ccc(C(=O)NCCSc2ccc(Cl)cc2)cc1S(=O)(=O)Nc1ccccc1`, the Potency is reported as inconclusive: 18.4 µM [falling, single point]. With `CCOc1ccc(NC(C(=O)Nc2cccc(C(C)=O)c2)c2ccccc2)cc1` (stereo not given) the Potency was “inactive”. In the case of `Cc1cc(CC(C)C)n(-c2nc3ccccc3c(=O)n2OCC(=O)N(C)C)n1`, the Potency is reported as “inactive”. For `Cn1c(=O)c2c(nc(NCc3ccccc3)n2Cc2ccc(Cl)c(Cl)c2)n(C)c1=O`, the Potency was inconclusive: 29.1 µM [falling, single point]. In the case of `COc1ccc(N2CC(C(=O)Nc3ccccc3-c3nc(-c4ccc(C)cc4)no3)CC2=O)cc1` (stereo not given), the Potency is reported as “inactive”. For `CC(C)(C)c1ccc(-n2nc(C#N)c(Cl)cc2=O)cc1`, the Potency was inconclusive: 29.1 µM [falling, partial curve, poor fit]. In the case of `COc1ccc2c(CC(=O)Nc3ncc(C)s3)coc2c1`, the Potency is reported as inconclusive: 25.9 µM [falling, single point]. In the case of `O=C1CC(c2ccccc2)=NN1c1ccccc1`, the Potency is reported as inconclusive: 29.1 µM [falling, single point]. In the case of `CSC(=Nc1ccccc1)N=C(SCc1ccccc1)N(C)C`, the Potency is reported as inconclusive: 20.6 µM [falling, single point]. In the case of `Cc1nc(NC(=O)/C=C/c2ccccc2)n[nH]1`, the Potency is reported as “inactive”. With `CCOc1cccc(=O)c2c(C)n(CC(=O)c3ccccc3)c(C)c12` the Potency was inconclusive: 23.1 µM [falling, partial curve, poor fit]. For `O=C(CSc1nc(-c2ccccc2)no1)N1CCN(c2ccc(F)cc2)CC1`, the Potency was “inactive”. With `CCc1cc[n+](C2=C([O-])c3ccccc3C(=O)/C2=N\S(=O)(=O)c2cccs2)cc1` the Potency was inconclusive: 25.9 µM [falling, single point]. In the case of `COc1ccc2c(CNCCc3ccccc3OC)c(C(=O)O)n(Cc3ccc(F)cc3Cl)c2c1`, the Potency is reported as “inactive”. In the case of `COc1cccc(CN(C)C(=O)C2CCN(S(=O)(=O)c3ccc(C)cc3)CC2)c1OC`, the Potency is reported as inconclusive: 0.0041 µM [activator, full curve, poor fit]. In the case of `COc1ccc(OC)c(C(=O)c2nc3c(n2O)CCCCC3)c1`, the Potency is reported as inconclusive: 25.9 µM [falling, partial curve, poor fit]. For `O=C(NCc1nc2ccccc2[nH]1)C1=C[C@@H](C2CCCCC2)C[C@@H](OCc2ccc(CO)cc2)O1`, the Potency was inconclusive: 20.6 µM [falling, single point]. For `Cc1ccc([N+](=O)[O-])cc1N/C=C/C(=O)c1ccco1`, the Potency was inconclusive: 20.6 µM [falling, single point]. In the case of `Cc1ccc(Nc2nc(N)nc(CC#N)n2)cc1`, the Potency is reported as “inactive”. In the case of `Cc1cc(/C=C2\SC(=S)N(C)C2=O)c(C)n1-c1cccc(O)c1`, the Potency is reported as inconclusive: 20.6 µM [falling, single point]. For `CCOC(=O)c1cccc(NC(=O)c2cccnc2)c1`, the Potency was “inactive”. For `CC(=NNC(=S)N(Cc1ccccn1)Cc1ccccn1)c1cnccn1`, the Potency was inconclusive: 6.51 µM [falling, full curve]. In the case of `COc1cccc(CNC(=O)c2ccc3c(c2)sc2nc(-c4ccccc4)cn23)c1OC`, the Potency is reported as “inactive”. With `Cc1ccn2c(-c3csc(NCc4ccccc4)n3)c(C)nc2c1` the Potency was inconclusive: 18.4 µM [falling, single point]. With `CC1(C)O[C@H]2[C@@H](O1)[C@@H](C(=O)Nc1cc(F)ccc1F)O[C@@H]1OC(C)(C)O[C@@H]12` the Potency was “inactive”. In the case of `COCCNC(=S)N/N=C(\C)c1ccc(-n2ccnc2)cc1`, the Potency is reported as “inactive”. In the case of `Cc1cc(-c2ccc(C)c(S(=O)(=O)N(C(C)C)C3CCCCC3)c2)on1`, the Potency is reported as “inactive”. In the case of `CCCCC1C(=O)N(c2ccccc2)N(c2ccc(O)cc2)C1=O` (stereo not given), the Potency is reported as inconclusive: 29.1 µM [falling, single point]. With `Cc1nc(NC(=O)c2ccco2)sc1-c1csc(Nc2ccc(Cl)cc2)n1` the Potency was inconclusive: 8.2 µM [falling, partial curve, poor fit]. In the case of `Cc1ccc(Nc2nc(N)nc(CCl)n2)cc1`, the Potency is reported as “inactive”. With `COc1ccc(/C=N/Nc2nc(Nc3ccccc3)nc(N3CCCC3)n2)cc1[N+](=O)[O-]` the Potency was inconclusive: 32.6 µM [falling, single point]. With `N#C/C(=N\Nc1ccc(S(=O)(=O)N2CCc3ccccc32)cc1)C(N)=S` the Potency was inconclusive: 14.6 µM [falling, partial curve, poor fit]. For `Cc1ccc(C(=O)Nc2cccc(-c3ccc(N4CCOCC4)nn3)c2)cc1C`, the Potency was inconclusive: 16.4 µM [falling, partial curve, poor fit]. With `COc1ccc(NC2c3ccccc3C(=O)N2c2ccccn2)cc1Cl` (stereo not given) the Potency was inconclusive: 25.9 µM [activator, single point]. In the case of `O=C(CSc1ccc(Cl)cc1)Nc1ccc(N2CCN(C(=O)c3ccc(Cl)cc3)CC2)cc1`, the Potency is reported as “inactive”. In the case of `COc1ccc(NC(=O)C(=O)c2cn(CC(=O)N3CCCC3)c3ccccc23)cc1OC`, the Potency is reported as inconclusive: 20.6 µM [falling, partial curve, poor fit]. With `O=C(NCc1ccc2c(c1)OCO2)c1ccc(-c2ccc(Cl)cc2)o1` the Potency was inconclusive: 29.1 µM [falling, single point].

— PubChem BioAssay AID504648 (National Center for Advancing Translational Sciences (NCATS), 2011)
Potency is the fitted concentration of half-maximal effect.
